{"source": "paper PMC12370185", "details_in_all_cases": "10 mM Tris-Cl pH 7.5, 50 mM NaCl, 1 mM DTT, 0.25 mg/ml BSA, 2 mM MgCl2, 0.025% Nonidet P-40, 5% glycerol; 28 nM nucleosome library; 10 min on ice then 30 min …; high values mean tight binding; double strand, one strand shown", "key": {"KLF4 + histone octamer": {"test_system": "KLF4 + histone octamer", "assay": "EMSA with sequencing"}, "OCT4 + histone octamer [1]": {"test_system": "OCT4 + histone octamer", "assay": "EMSA with sequencing"}, "SOX2 + histone octamer": {"test_system": "SOX2 + histone octamer", "assay": "EMSA with sequencing"}, "[2]": {"test_system": "c-MYC + MAX + histone octamer", "assay": "Pioneer-seq (competitive nucleosome EMSA with sequencing)"}, "[3]": {"test_system": "c-MYC + MAX + histone octamer", "assay": "EMSA with sequencing"}, "OCT4 + histone octamer [4]": {"test_system": "OCT4 + histone octamer", "assay": "Pioneer-seq (competitive nucleosome EMSA with sequencing)"}}, "note": "The other results are listed elsewhere or left out. For some of these results: At the low end of the ranking, values are background and their order means little.", "data": [{"sequence": "GATGGACCCTATACGCGGCAGGAACTGCACTCTATCTGGTATTTAAATTCCAGGTAAGTTAGGACTGATGCCTGGTGTAGAATGCTCAAGTGTGGCCCAGATCAGTGTGGCAGTGGTGTACATCAGTTGATGTCAAAAGATGAGTTATACCCCTGGACTTCATAAGCATCAGAAAGCTCTTCTCCCTTTTGTTACATGGAGGGCTATGATTGCCAGTCGGATAGTGTTCC", "values": [{"measurement": "binding signal (log2 relative supershift)", "setting": "KLF4 + histone octamer", "value": 0.43}, {"measurement": "binding signal (log2 relative supershift)", "setting": "OCT4 + histone octamer [1]", "value": 0.0779}, {"measurement": "binding signal (log2 relative supershift)", "setting": "SOX2 + histone octamer", "value": 1.54}, {"measurement": "binding signal (log2 relative supershift)", "setting": "[2]", "value": -0.433}]}, {"sequence": "GATGGACCCTATACGCGGCTGCATGCATTTCTGCTATTCAGCACTGCAAAGGTTGGTTATCACATTGAAAGCTCCATGACAAGAAGGAGCCAGGACAATCTGAAACCAAGCAGAATATGCAACTGAAAGAACATGCGCCTTGAAATCAGACCAAACCTGGGTTTGAATTCTGGGCTTGAACCCTGGTGCTGACATTTTTAGCTGTATCACTGCCAGTCGGATAGTGTTCC", "values": [{"measurement": "binding signal (log2 relative supershift)", "setting": "KLF4 + histone octamer", "value": 0.799}, {"measurement": "binding signal (log2 relative supershift)", "setting": "SOX2 + histone octamer", "value": 0.148}, {"measurement": "binding signal (log2 relative supershift)", "setting": "[3]", "value": 0.0807}, {"measurement": "binding signal (log2 relative supershift)", "setting": "OCT4 + histone octamer [4]", "value": -0.259}]}, {"sequence": "GATGGACCCTATACGCGGCTGCTGTAGGGCCAGAGAAGGATACACACAGCGAGCCTGGCGAATCTCAACAGTACTGGGTGTGGTCAGAGGGCAGCGTGGGTGTGGCCGCATGGCTCCACCCCAGACCCACATGGAGCAGTGGCTTTGGAGCCAGACGCAGGAGCTGGGAATGGCAGCCAGCACATCACAACTTCTGAGCTCAACCATTTGTGCCAGTCGGATAGTGTTCC", "values": [{"measurement": "binding signal (log2 relative supershift)", "setting": "KLF4 + histone octamer", "value": 1.13}, {"measurement": "binding signal (log2 relative supershift)", "setting": "SOX2 + histone octamer", "value": 0.565}, {"measurement": "binding signal (log2 relative supershift)", "setting": "[3]", "value": 0.414}, {"measurement": "binding signal (log2 relative supershift)", "setting": "OCT4 + histone octamer [4]", "value": -0.218}]}, {"sequence": "GATGGACCCTATACGCGGCCTCCAACAGAAATCTCCACTCACAGGTGTCACAGCCCAAAGCTGTCTTTGTAATGGTGACCTCACCCTGGTATCACAGTGACTGTAAGGGAAAGAAAGCAGCTGCCACTTCCTGGTTCACTTTCAACACCAAGCTCTCCTGATTTTATGTGTTCATTCTTATTACTTTCTTTCCCTCTCACCCTACCATATTGCCAGTCGGATAGTGTTCC", "values": [{"measurement": "binding signal (log2 relative supershift)", "setting": "KLF4 + histone octamer", "value": 0.958}, {"measurement": "binding signal (log2 relative supershift)", "setting": "SOX2 + histone octamer", "value": 0.797}, {"measurement": "binding signal (log2 relative supershift)", "setting": "[3]", "value": 0.171}, {"measurement": "binding signal (log2 relative supershift)", "setting": "OCT4 + histone octamer [4]", "value": -0.222}]}]}
